Measurements published in PubChem BioAssay AID1347431 (National Center for Advancing Translational Sciences (NCATS), 2020).
The campaign covered roughly 1,200 compounds. Fewer than 10 were called active. Calls follow the shape of the dose curve; as a rule, active = well fitted curve in the direction sought with a large enough effect; inconclusive = small, poorly fitted or top-dose-only effect, or another doubt; inactive = no such curve, though single readings can be large or run the other way. The list shows a part of the results.

Experiment: Confirmatory qHTS assay for inhibitors of Activation Induced Cytidine Deaminase (AID): UDG signals; also: 0% is about no effect
Conditions: UDG coupled enzyme activity counter-screen; at 115 µM (top of the series) unless noted
Method in brief: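 UDG readout, a counterscreen: AID (1 uM, 4/3x) plus UDG (2 U/mL, 4/3x) preincubated 10 min with compound (7.32 nM - 114 uM final), then 4 h with DJC20/DJC23 substrates at room temperature; NaOH added, fluorescence read at 560/665 nm.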

Q: With `Cc1nc2nc(SCC(=O)NCc3ccccc3Cl)nn2c(C)c1Cc1ccccc1` as the molecule, how does the activity change, negative = inhibition read?
A: The activity change, negative = inhibition was inactive: -2.93%.

Q: For `Fc1cc(Br)ccc1Nc1c2c(nc3nc(-c4cccs4)nn13)CCCC2`, which activity change, negative = inhibition is on record?
A: The activity change, negative = inhibition was inactive: 4.72%.

Q: Which activity change, negative = inhibition does the source give for `CCn1cc(C(=O)NCc2ccccc2OC)c(=O)c2cc(S(=O)(=O)N3CCCCC3)ccc21` here?
A: Its activity change, negative = inhibition is inactive: -14.6%.

Q: With `Cc1ccc(C)c(OCCn2cc(C(=O)c3ccco3)c3ccccc32)c1` as the molecule, how does the activity change, negative = inhibition read?
A: Its activity change, negative = inhibition is inactive: -1.66%.

Q: For `CCc1ccc(OCC(=O)N(Cc2ccc(Cl)cc2)C2CCS(=O)(=O)C2)cc1` (centres undefined), which activity change, negative = inhibition is on record?
A: Its activity change, negative = inhibition is inactive: -1.47%.

Q: For `Cc1cccc(NC(=O)c2c(NC(=O)C(F)(F)F)sc3c2CCCCC3)c1`, which activity change, negative = inhibition is on record?
A: The activity change, negative = inhibition was inactive: 3.54%.

Q: With `CCCCN(CC)CCNC(=O)c1cc2c(=O)oc3ccc(C)cc3c2s1` as the molecule, how does the activity change, negative = inhibition read?
A: Its activity change, negative = inhibition is inactive: 3.87%.

Q: Which activity change, negative = inhibition does the source give for `O=C(NCCc1csc(-c2ccc(Cl)cc2)n1)c1cccs1` here?
A: The activity change, negative = inhibition was inactive: -5.22%.

Q: For `CCN(CC)C(=O)CSc1nc(-c2ccccc2F)nc2c1Cc1c(CO)cnc(C)c1O2`, which activity change, negative = inhibition is on record?
A: The activity change, negative = inhibition was inactive: -0.876%.

Q: For `CN(c1ncnc2onc(-c3cccc(Cl)c3)c12)C1CCCCC1`, which activity change, negative = inhibition is on record?
A: The activity change, negative = inhibition was inactive: -5.73%.

Q: For `Cc1ccc(Cc2nc3ccccc3nc2SCC(=O)N2CCCCC2)cc1`, which activity change, negative = inhibition is on record?
A: The activity change, negative = inhibition was inactive: 9.18%.

Q: For `COc1ccc(CSc2nc3ccncc3n2Cc2nc(-c3ccc(OC)c(OC)c3)oc2C)cc1`, which activity change, negative = inhibition is on record?
A: The activity change, negative = inhibition was inactive: 3.79%.

Q: With `CCCCSCCCNC(=O)c1cn(CC)c2ccc(S(=O)(=O)N(C)C3CCCCC3)cc2c1=O` as the molecule, how does the activity change, negative = inhibition read?
A: The activity change, negative = inhibition was inactive: -17.5%.

Q: Which activity change, negative = inhibition does the source give for `Cc1ccc(-c2noc(CN(C(=O)c3ccc(C(C)(C)C)cc3)C(C)C)n2)cc1` here?
A: The activity change, negative = inhibition was inactive: -12.6%.

Q: With `CCOC(=O)C1=C(CN(CC)Cc2ccccc2)NC(=O)NC1c1ccc(Cl)cc1` (centres undefined) as the molecule, how does the activity change, negative = inhibition read?
A: The activity change, negative = inhibition was inactive: -4.27%.

Q: Which activity change, negative = inhibition does the source give for `CCOC(=O)c1cnn(-c2cccc(Cl)c2)c1C1CCN(C(=O)OC(C)(C)C)CC1` here?
A: The activity change, negative = inhibition was inactive: -10.2%.

Q: For `Cc1ccc(Nc2c3c(nc4ccccc24)CCC3)cc1F`, which activity change, negative = inhibition is on record?
A: The activity change, negative = inhibition was inactive: -1.36%.

Q: For `CCN(C(=O)c1nn(C)c2c1CSc1ccccc1-2)c1cccc(C)c1`, which activity change, negative = inhibition is on record?
A: Its activity change, negative = inhibition is inactive: -5.02%.

Q: With `CCC1=Nc2cc(C(=O)N3CCC(C)CC3)ccc2Sc2ccc(C)cc21` as the molecule, how does the activity change, negative = inhibition read?
A: Its activity change, negative = inhibition is inactive: -10.5%.

Q: For `Cc1ccccc1-c1nc(CS(=O)CC(=O)N2CCN(c3cc(Cl)ccc3C)CC2)c(C)o1` (centres undefined), which activity change, negative = inhibition is on record?
A: Its activity change, negative = inhibition is inactive: -9.14%.

Q: For `Cc1[nH]c2ccccc2c1C(c1ccccc1)c1cccs1` (centres undefined), which activity change, negative = inhibition is on record?
A: The activity change, negative = inhibition was inactive: -1.68%.

Q: For `Cc1ccsc1CN(Cc1ccco1)C(=O)c1ccc(Cl)cc1`, which activity change, negative = inhibition is on record?
A: The activity change, negative = inhibition was inactive: 3.07%.

Q: For `Cc1nc2c(-c3ccccc3)c(C)nn2c(C)c1CCC(=O)N1CCN(c2ccc(F)cc2)CC1`, which activity change, negative = inhibition is on record?
A: Its activity change, negative = inhibition is inactive: 0.55%.

Q: With `O=C(NCCc1ccccc1)c1sc2ncccc2c1-n1cccc1` as the molecule, how does the activity change, negative = inhibition read?
A: The activity change, negative = inhibition was inactive: -7.47%.

Q: With `C[C@]12C=CC(=O)C=C1CC[C@@H]1C2=CC[C@]2(C)[C@@H](C(=O)CN3CCN(c4cc(N5CCCC5)nc(N5CCCC5)n4)CC3)CC[C@@H]12` as the molecule, how does the activity change, negative = inhibition read?
A: Its activity change, negative = inhibition is inactive: -7.26%.

Q: For `CCn1cc(C(=O)NCCc2ccc(C)cc2)c(=O)c2cc(S(=O)(=O)N3CCC(C)CC3)ccc21`, which activity change, negative = inhibition is on record?
A: Its activity change, negative = inhibition is inactive: -9.56%.

Q: For `Cc1ccccc1OCCCCn1c(CCNC(=O)C(C)(C)C)nc2ccccc21`, which activity change, negative = inhibition is on record?
A: Its activity change, negative = inhibition is inactive: -7.53%.

Q: With `Cc1cc(C)c(/C=C/c2onc(C)c2S(=O)(=O)N2CCC(C(=O)N3CCN(c4ccccc4)CC3)CC2)c(C)c1` as the molecule, how does the activity change, negative = inhibition read?
A: Its activity change, negative = inhibition is inactive: -10.8%.

Q: With `O=C(CCCCn1c(=O)[nH]c2ccsc2c1=O)N1CCN(c2cccc(Cl)c2)CC1` as the molecule, how does the activity change, negative = inhibition read?
A: The activity change, negative = inhibition was inactive: -5.96%.

Q: Which activity change, negative = inhibition does the source give for `Cc1ccc(-c2n[nH]c3c2C(c2cccc(O)c2)N(c2ccc(C(=O)O)cc2)C3=O)cc1` (centres undefined) here?
A: Its activity change, negative = inhibition is inactive: 3.33%.

Q: With `Cc1ccc(C(=O)Nc2ccc(S(=O)(=O)O)c3cc(S(=O)(=O)O)cc(S(=O)(=O)O)c23)cc1NC(=O)c1cccc(NC(=O)Nc2cccc(C(=O)Nc3cc(C(=O)Nc4ccc(S(=O)(=O)O)c5cc(S(=O)(=O)O)cc(S(=O)(=O)O)c45)ccc3C)c2)c1` as the molecule, how does the activity change, negative = inhibition read?
A: Its activity change, negative = inhibition is inactive: -7.52%.

Q: Which activity change, negative = inhibition does the source give for `CN(Cc1ccc(F)cc1)S(=O)(=O)c1nnc(NC(=O)c2ccccc2Br)s1` here?
A: Its activity change, negative = inhibition is inactive: 6.01%.

Q: With `CCN(CC)CC(C)CNC(=O)c1cc(-c2ccc(Br)s2)nc2ccccc12` (centres undefined) as the molecule, how does the activity change, negative = inhibition read?
A: Its activity change, negative = inhibition is inactive: -4.76%.

Q: Which activity change, negative = inhibition does the source give for `COc1ccc(C)cc1NC(=O)c1ccc2c(SCC(=O)O)c3c(nc2c1)CCCC3` here?
A: Its activity change, negative = inhibition is inactive: -1.88%.

Q: For `COc1ccc(-c2nc(CSCC(=O)N3CCN(c4cccc(C)c4C)CC3)c(C)o2)cc1OC`, which activity change, negative = inhibition is on record?
A: The activity change, negative = inhibition was inactive: -5.7%.

Q: For `COc1cccc(CNC(=O)c2oc3c(c2C)-c2nn(Cc4cccc(Cl)c4)cc2CC3)c1OC`, which activity change, negative = inhibition is on record?
A: The activity change, negative = inhibition was inactive: -5.41%.

Q: For `Oc1ccc(NCc2ccccc2OCc2ccccc2F)cc1`, which activity change, negative = inhibition is on record?
A: Its activity change, negative = inhibition is inactive: -18.7%.

Q: Which activity change, negative = inhibition does the source give for `Cc1ccc(C)c(N2CCN(C(=O)c3ccc4c(c3)N(Cc3ccc(F)cc3)C(=O)c3ccccc3S4=O)CC2)c1` (centres undefined) here?
A: Its activity change, negative = inhibition is inactive: -5.84%.

Q: Which activity change, negative = inhibition does the source give for `Cc1cc(N)c(-n2cc3c(c2-c2ccc(Br)cc2)c(=O)n(C)c(=O)n3C)cc1C` here?
A: The activity change, negative = inhibition was inactive: -5.86%.
